Reference: PubChem BioAssay AID2685 (National Center for Advancing Translational Sciences (NCATS), 2010)
The other results are listed elsewhere or left out. The main result of the screen is listed elsewhere. These columns were measured beside it and carry no call. Most of these compounds were active or inconclusive in the main read-out, so they are no random draw. Words in brackets tell the shape of the fitted curve; partial curves, single points and poor fits give uncertain potencies.

Test: qHTS Assay for Lipid Storage Modulators in Drosophila S3 Cells;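 on cell number change: cells counted by Cell Tracker Red CMTPX staining in the red channel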
Settings: BODIPY lipid droplet fluorescence, 18-24 h; for cell number change: measured here: cell count max response, cells fed with added oleic acid
In short: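 Drosophila S3 cells loaded with oleic acid (400 uM, as added) and compounds at several concentrations; lipid droplets imaged by 488-nm laser-scanning cytometry, 500–530 nm intensity and object ratio to cell channel. Percent activity normalized to 20 uM Triacsin C.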

[1] = measured here: lipid fluorescence (Fed channel) AC50, cells fed with added oleic acid
[2] = measured here: cell number channel AC50, cells fed with added oleic acid

With `COc1ccccc1OCC(=O)OCC(=O)Nc1ncc(Cl)cc1Cl` the cell number change was 12.1% and the AC50 [1] was 0.13 µM [falling, full curve, poor fit].
With `CCOc1ccc(/C=C/C(=O)c2ccccc2)cc1OC` the cell number change was 23%, the AC50 [2] was 2.06 µM [rising, partial curve] and the AC50 [1] was 3.66 µM [rising, partial curve].
For `O=C(O)C(C/C(=N/O)c1ccc(Br)cc1)P(=O)(c1ccccc1)c1ccccc1` (configuration not stated), the cell number change was -8.81%.
For `CCN(CCn1cccn1)Cc1nc(-c2ccccc2)no1`, the cell number change was 8.5% and the AC50 [1] was 23.1 µM [rising, single point].
In the case of `CC(=O)Nc1ccc2nc(-c3ccc(Br)o3)[nH]c2c1`, the cell number change is reported as -8.71% and the AC50 [1] is reported as 32.6 µM [falling, single point].
Compound `O=C(O)c1cc(S(=O)(=O)Nc2ccc(OCc3ccccc3)cc2)ccc1Br` has a cell number change of 22.2%.
In the case of `CCN(CC)CCn1c(NC(=O)c2ccc(C(F)(F)F)cc2)nc2ccccc21`, the cell number change is reported as 0.34% and the AC50 [2] is reported as 6.51 µM [falling, single point].
In the case of `Cc1cc(NC(=O)CCN2CCN(C/C=C/c3ccccc3)CC2)ccc1Br`, the cell number change is reported as -6.2%.
In the case of `CCOC(=O)C(C)Oc1c(Br)cc(C2NC(=O)NC(C)=C2C(C)=O)cc1OCC` (configuration not stated), the AC50 [1] is reported as 6.51 µM [rising, single point].
With `CCOC(=O)N1CCN(C(=O)CSc2nc3c(cnn3-c3ccccc3)c(=O)[nH]2)CC1` the cell number change was 26.1%, the AC50 [2] was 0.0146 µM [rising, full curve, poor fit] and the AC50 [1] was 0.146 µM [rising, full curve, poor fit].
With `O=C(NNC(=O)c1ccc(Br)s1)c1cccc(Cl)c1` the cell number change was -1.82% and the AC50 [1] was 9.2 µM [rising, partial curve].
With `Cc1ccccc1-c1noc(CNC(=O)c2ccco2)n1` the cell number change was 23.9% and the AC50 [1] was 0.231 µM [rising, full curve, poor fit].
In the case of `Cc1cc2c(cc1C)C(c1ccccc1Br)CC(=O)N2` (configuration not stated), the cell number change is reported as -2.87% and the AC50 [1] is reported as 1.03 µM [rising, partial curve].
With `O=C1CC(O)(c2ccccc2)C(c2ccccc2)=C1c1ccccc1` (configuration not stated) the cell number change was -45.3%, the AC50 [2] was 20.6 µM [falling, single point] and the AC50 [1] was 23.1 µM [falling, single point].
In the case of `CCCCN(CCCC)CCCNC(=O)CC1Oc2ccc(C)cc2NC1=O` (configuration not stated), the AC50 [1] is reported as 25.9 µM [falling, partial curve].
In the case of `O=C(OCC#CCSc1nnc(-c2ccc(Br)cc2)o1)c1ccco1`, the cell number change is reported as 34.8%, the AC50 [2] is reported as 10.3 µM [rising, partial curve] and the AC50 [1] is reported as 14.6 µM [rising, partial curve].
In the case of `Cc1ccc(-c2nc(CS(=O)(=O)CC(=O)NCCN3CCCC3)c(C)o2)cc1`, the cell number change is reported as -6.85% and the AC50 [1] is reported as 2.59 µM [rising, full curve, poor fit].
For `Cc1nn(Cc2ccc(Cl)cc2Cl)c(C)c1NC(=O)NC12CC3CC(CC(C3)C1)C2`, the cell number change was -41.6%, the AC50 [2] was 0.82 µM [falling, full curve] and the AC50 [1] was 29.1 µM [falling, single point].
In the case of `CCOC(=O)C1CCCN(c2c(Nc3cccc(C)c3)c(=O)c2=O)C1` (configuration not stated), the cell number change is reported as 32.1%, the AC50 [2] is reported as 6.51 µM [rising, single point] and the AC50 [1] is reported as 6.51 µM [rising, single point].
For `Cc1ccc(CN2CCC(CNS(=O)(=O)c3ccc(-c4ccc(=O)[nH]n4)s3)CC2)cc1`, the cell number change was -7.08% and the AC50 [1] was 29.1 µM [falling, single point].
For `Cc1cccc(N2CCN(C(=O)C3CCN(c4ncnc5c4nc4n5CCCCC4)CC3)CC2)c1C`, the AC50 [1] was 1.84 µM [falling, full curve].
With `CCN1C(=O)CC(N2CCN(c3ccc(C(=O)c4ccccc4)cc3)CC2)C1=O` (configuration not stated) the cell number change was -79.9%, the AC50 [2] was 0.259 µM [falling, partial curve, poor fit] and the AC50 [1] was 32.6 µM [falling, single point].
In the case of `CCCOC(=O)Nc1nc2ccccc2o1`, the cell number change is reported as 7.36% and the AC50 [1] is reported as 0.0731 µM [falling, full curve, poor fit].
`COC(=O)c1cc(S(=O)(=O)N2CCOCC2)ccc1Sc1ccccc1N` showed a cell number change of -27.4%.
For `O=C(CSc1nnc(-c2ccco2)n1CC1CCCO1)c1ccc(F)cc1` (configuration not stated), the cell number change was -10% and the AC50 [2] was 0.731 µM [falling, full curve, poor fit].
For `CC(C#N)Sc1ccc(S(=O)(=O)N(C)C2CCCCC2)cn1` (configuration not stated), the cell number change was -12.2% and the AC50 [1] was 6.51 µM [falling, partial curve].
Compound `CCN(CC)C(=O)CC1(c2ccccc2OC)CCOC(C(C)C)C1` (configuration not stated) has a cell number change of 5.16%.
With `COc1ccc(OC)c(NC(=O)COC(=O)/C=C/c2ccc(Cl)cc2)c1` the cell number change was 4.56% and the AC50 [1] was 18.4 µM [falling, partial curve, poor fit].
With `COC(=O)c1[nH]c2ccc(F)cc2c1NS(=O)(=O)c1ccc(OC)cc1` the cell number change was 3.38% and the AC50 [1] was 8.2 µM [rising, partial curve].
With `CC1CC1C(=O)OCC(=O)c1c(N)n(C)c(=O)n(C)c1=O` (configuration not stated) the cell number change was 57.3%, the AC50 [2] was 29.1 µM [rising, single point] and the AC50 [1] was 29.1 µM [rising, partial curve, poor fit].
With `CN(C)C(=O)COc1ncnc2scc(-c3ccc(F)cc3)c12` the cell number change was 39.4% and the AC50 [1] was 0.00461 µM [rising, full curve, poor fit].
With `Cc1ccc(/C=C/C(=O)N2CCN(Cc3ccccc3)CC2)o1` the cell number change was -56.7%, the AC50 [2] was 20.6 µM [falling, partial curve, poor fit] and the AC50 [1] was 0.92 µM [falling, full curve].
Compound `CCc1ccccc1N(CC(=O)NC(C)c1ccccc1)S(C)(=O)=O` (configuration not stated) has a cell number change of 13.2%.
With `CC(C)c1ccc(Nc2nc(NCc3ccco3)nc(N3CCOCC3)n2)cc1` the cell number change was -28.9% and the AC50 [1] was 6.51 µM [falling, single point].
With `CN1/C(=C/C(=O)C2CCC2)Sc2ccccc21` the cell number change was 12.2% and the AC50 [1] was 0.259 µM [rising, full curve].
With `NC(=O)C1(N2CCCCC2)CCN(C(=S)Nc2ccc(Cl)cc2)CC1` the AC50 [2] was 1.84 µM [rising, partial curve] and the AC50 [1] was 6.51 µM [rising, single point].
With `Cc1cccc(C(=O)NCC(=O)N2CCN(S(=O)(=O)c3cc(C)ccc3C)CC2)c1` the cell number change was 12.2% and the AC50 [1] was 29.1 µM [rising, single point].
For `COc1ccccc1C(=O)NC(=Nc1nc2ccccc2o1)NC(=O)c1ccccc1OC`, the cell number change was -150% and the AC50 [1] was 29.1 µM [falling, single point].
In the case of `CN1C(=O)C(O)(CC(=O)c2ccncc2)c2ccccc21` (configuration not stated), the AC50 [2] is reported as 0.00411 µM [rising, full curve, poor fit].
With `COC(=O)c1n[nH]nc1-c1ccccc1` the AC50 [2] was 6.51 µM [rising, partial curve, poor fit].
In the case of `Cc1onc(COc2ccccc2O)c1Br`, the cell number change is reported as -35.5%, the AC50 [2] is reported as 1.16 µM [falling, full curve, poor fit] and the AC50 [1] is reported as 5.8 µM [falling, full curve].
With `CCCCN(c1ccc(C(=O)OC)cc1)S(=O)(=O)c1ccccc1` the cell number change was 61.1%, the AC50 [2] was 20.6 µM [rising, single point] and the AC50 [1] was 25.9 µM [rising, single point].
In the case of `CSc1ccccc1NC(=O)C1CCN(S(C)(=O)=O)CC1`, the cell number change is reported as 37.8% and the AC50 [2] is reported as 29.1 µM [rising, partial curve, poor fit].
In the case of `C#CCOc1ccc(/C=C2\SC(=S)N(Cc3cccnc3)C2=O)cc1`, the cell number change is reported as -4.32% and the AC50 [1] is reported as 0.58 µM [rising, full curve].
With `CCOC(=O)Cn1cnc2scc(-c3ccccc3)c2c1=O` the cell number change was 18.9% and the AC50 [1] was 2.91 µM [falling, single point].
For `Cc1ccc(-c2csc(N3CCC(C(N)=O)(N4CCCCC4)CC3)n2)cc1`, the cell number change was -1.21% and the AC50 [1] was 29.1 µM [rising, single point].
For `COc1cc(NC(=O)NCCN2CCN(c3ccccc3)CC2)cc(OC)c1OC`, the cell number change was 6.94%, the AC50 [2] was 7.31 µM [rising, partial curve, poor fit] and the AC50 [1] was 6.51 µM [falling, single point].
For `O=C(Nc1cccc(Cl)c1)Nc1ccc2c(c1)OCO2`, the cell number change was -22.3% and the AC50 [1] was 2.06 µM [rising, partial curve].
For `COc1ccc(CN/C(C)=C(/C#N)C(N)=O)cc1OC`, the cell number change was 46.1% and the AC50 [2] was 13 µM [rising, single point].
For `COc1ccccc1NC(=O)COC(=O)c1cc2ccccc2cc1O`, the cell number change was -39.8% and the AC50 [2] was 32.6 µM [falling, single point].
For `Cc1ccc(N(C)C(=O)CCS(=O)(=O)c2cc3c(cc2Cl)NC(=O)CO3)cc1`, the cell number change was 0.288% and the AC50 [1] was 0.0517 µM [rising, full curve, poor fit].
With `CCc1cc2c(COC(=O)CCNS(=O)(=O)c3cccc(C(F)(F)F)c3)cc(=O)oc2cc1O` the cell number change was -35.1% and the AC50 [2] was 20.6 µM [falling, single point].
In the case of `CCOc1ccc(NC(=O)CCCN2C(=S)NC(C)(C)CC2C)cc1` (configuration not stated), the cell number change is reported as 8.61% and the AC50 [1] is reported as 4.11 µM [rising, full curve, poor fit].
For `Cn1c(SCc2cccc(F)c2)nnc1-c1cnccn1`, the cell number change was 47.3%, the AC50 [2] was 7.31 µM [rising, partial curve, poor fit] and the AC50 [1] was 6.51 µM [falling, single point].
For `Cc1ccc(S(=O)(=O)N2CCN(CCNC(=O)C(=O)NCc3ccccc3)CC2)cc1`, the cell number change was -1.32% and the AC50 [1] was 2.51 µM [rising, partial curve].
For `O=C(CN1CCCCCC1)Nc1cc(C(F)(F)F)ccc1Cl`, the cell number change was 50.1%, the AC50 [2] was 0.058 µM [rising, full curve, poor fit] and the AC50 [1] was 2.31 µM [rising, partial curve, poor fit].
With `CN(CCCC1CCCC1)C(=O)CC1C(=O)NCCN1Cc1cccc(F)c1F` (configuration not stated) the cell number change was -10.6% and the AC50 [1] was 0.461 µM [falling, full curve, poor fit].
